Laboratory results: the supplement of paper PMC4604168 (melanoma cell lines)
The list shows a part of the results. Many values rest on one well or one pass, so single values are uncertain.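 Cells were imaged in 1,536-well plates, and nuclei stained with an antibody against cleaved PARP were counted against all DNA-stained nuclei to give the apoptosis fraction. Screening doses were chosen to leave most cells alive, and resting and induced cleaved-PARP levels differ strongly between cell lines.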

Tests used:
Experiment in all cases: cleaved PARP positive nuclei fraction relative to DMSO control; melanoma cells; higher = more apoptosis
Settings in all cases: library dose: low library concentration; 72 h
[1] = system: 501Mel
[2] = system: A101D
[3] = system: A2058
[4] = system: A375
[5] = system: C32
[6] = system: CBRC008 (line from a melanoma biopsy)
[7] = system: CBRC014 (line from a melanoma biopsy)
[8] = system: CBRC016 (line from a melanoma biopsy)
[9] = system: CBRC017 (line from a melanoma biopsy)
[10] = system: CBRC034 (line from a melanoma biopsy)
[11] = system: COLO792
[12] = system: COLO800
[13] = system: COLO829
[14] = system: G361
[15] = system: IPC-298
[16] = system: IST-MEL1
[17] = system: LB2518-MEL
[18] = system: LOXIMVI
[19] = system: MEL-HO

| SMILES | cleaved PARP positive nuclei fraction [1] [%] | cleaved PARP positive nuclei fraction [2] [%] | cleaved PARP positive nuclei fraction [3] [%] | cleaved PARP positive nuclei fraction [4] [%] | cleaved PARP positive nuclei fraction [5] [%] | cleaved PARP positive nuclei fraction [6] [%] | cleaved PARP positive nuclei fraction [7] [%] | cleaved PARP positive nuclei fraction [8] [%] | cleaved PARP positive nuclei fraction [9] [%] | cleaved PARP positive nuclei fraction [10] [%] | cleaved PARP positive nuclei fraction [11] [%] | cleaved PARP positive nuclei fraction [12] [%] | cleaved PARP positive nuclei fraction [13] [%] | cleaved PARP positive nuclei fraction [14] [%] | cleaved PARP positive nuclei fraction [15] [%] | cleaved PARP positive nuclei fraction [16] [%] | cleaved PARP positive nuclei fraction [17] [%] | cleaved PARP positive nuclei fraction [18] [%] | cleaved PARP positive nuclei fraction [19] [%] |
| --- | --- | --- | --- | --- | --- | --- | --- | --- | --- | --- | --- | --- | --- | --- | --- | --- | --- | --- | --- |
| CC[C@]1(O)C[C@H]2CN(CCc3c([nH]c4ccccc34)[C@@](C(=O)OC)(c3cc4c(cc3OC)N(C=O)[C@H]3[C@@](O)(C(=O)OC)[C@H](OC(C)=O)[C@]5(CC)C=CCN6CC[C@]43[C@@H]65)C2)C1 [vincristine] + CN1CCN(c2ccc3nc(-c4c(N)c5c(F)cccc5[nH]c4=O)[nH]c3c2)CC1 [Dovitinib] (first compound 0.0001 µM, partner dose 0.1 µM) | 98.8 | 253 | 518 | 286 | 269 | 68.3 | 89.8 | 111 | 108 | 79.8 | 140 | 90.1 | 122 | 113 | 86.9 | 120 | 68 | 164 | 42.5 |
| Cc1cc(Nc2cc(N3CCN(C)CC3)nc(Sc3ccc(NC(=O)C4CC4)cc3)n2)n[nH]1 [Tozasertib] + C#Cc1cccc(Nc2ncnc3cc(OCCOC)c(OCCOC)cc23)c1 [erlotinib] (first compound 0.006 µM, partner dose 0.8 µM) | 93 | 394 | 110 | 119 | 87.5 | 356 | 107 | 103 | 95 | 69.8 | 53.3 | 144 | 70.9 | 46.7 | 157 | 131 | 53.4 | 169 | 96.5 |
| O=C(/C=C/c1cccnc1)NCCCCC1CCN(C(=O)c2ccccc2)CC1 + O=C(O)c1ccc2c(c1)nc(Nc1cccc(Cl)c1)c1ccncc12 [CX4945] (first compound 0.01 µM, partner dose 0.4 µM) | 146 | 139 | 30.7 | 40.2 | 75.7 | 1490 | 122 | 1390 | 509 | 3380 | 844 | 166 | 280 | 2600 | 115 | 99.8 | 496 | 179 | 255 |
| COc1cc([C@@H]2c3cc4c(cc3[C@@H](O[C@@H]3O[C@@H]5CO[C@@H](C)O[C@H]5[C@H](O)[C@H]3O)[C@H]3COC(=O)[C@H]23)OCO4)cc(OC)c1O [etoposide] + Cn1c(=O)n(-c2ccc(C(C)(C)C#N)cc2)c2c3cc(-c4cnc5ccccc5c4)ccc3ncc21 [NVP-BEZ235] (first compound 0.02 µM, partner dose 0.004 µM) | 52.6 | 200 | 133 | 129 | 234 | 88.9 | 84.7 | 115 | 139 | 38.1 | 127 | 23.1 | 86.1 | 187 | 148 | 269 | 137 | 167 | 121 |
| CC[C@]1(O)C[C@H]2CN(CCc3c([nH]c4ccccc34)[C@@](C(=O)OC)(c3cc4c(cc3OC)N(C=O)[C@H]3[C@@](O)(C(=O)OC)[C@H](OC(C)=O)[C@]5(CC)C=CCN6CC[C@]43[C@@H]65)C2)C1 [vincristine] + COc1ccc(C2=N[C@@H](c3ccc(Cl)cc3)[C@@H](c3ccc(Cl)cc3)N2C(=O)N2CCNC(=O)C2)c(OC(C)C)c1 [Nutlin-3] (first compound 0.0001 µM, partner dose 0.1 µM) | 199 | 236 | 949 | 529 | 109 | 122 | 107 | 95.6 | 114 | 188 | 85 | 183 | 100 | 199 | 43.1 | 72.3 | 58.6 | 333 | 155 |
| Cc1cc(Nc2cc(N3CCN(C)CC3)nc(Sc3ccc(NC(=O)C4CC4)cc3)n2)n[nH]1 [Tozasertib] + COCC[n+]1c2c(n(Cc3cnccn3)c1C)C(=O)c1ccccc1C2=O [YM155] (first compound 0.006 µM, partner dose 0.0004 µM) | 82.5 | 133 | 51.6 | 202 | 90.1 | 733 | 86.7 | 79.4 | 88.5 | 119 | 96.7 | 34.5 | 110 | 147 | 54.9 | 63.7 | 55.6 | 75.4 | 76.6 |
| O=C(Nc1cc(C(F)(F)F)cc(C(F)(F)F)c1)c1cc(Cl)ccc1O + CC(C)C[C@H](NC(=O)[C@H](Cc1ccccc1)NC(=O)c1cnccn1)B(O)O [Bortezomib] (first compound 0.016 µM, partner dose 0.001 µM) | 122 | 108 | 158 | 105 | 88 | 407 | 114 | 107 | 256 | 234 | 199 | 52.7 | 144 | 185 | 125 | 128 | 254 | 81.6 | 41.5 |
| Cc1ccc(Nc2nccc(N(C)c3ccc4c(C)n(C)nc4c3)n2)cc1S(N)(=O)=O [Pazopanib] + C[C@]1(O)C[C@@H](c2nc(-c3ccc4ccc(-c5ccccc5)nc4c3)c3c(N)nccn32)C1 [OSI906] (first compound 0.4 µM, partner dose 0.4 µM) | 170 | 105 | 181 | 191 | 123 | 90.6 | 119 | 133 | 96.4 | 69.9 | 71.4 | 108 | 155 | 86.9 | 68.4 | 207 | 26.3 | 95.5 | 83.9 |
| O=C(Nc1cc(C(F)(F)F)cc(C(F)(F)F)c1)c1cc(Cl)ccc1O + Cc1ccc(Nc2nccc(N(C)c3ccc4c(C)n(C)nc4c3)n2)cc1S(N)(=O)=O [Pazopanib] (first compound 0.016 µM, partner dose 0.4 µM) | 120 | 37.6 | 69.1 | 182 | 72.1 | 124 | 99.2 | 86.5 | 100 | 32 | 46.5 | 94.4 | 84.1 | 99.4 | 47.9 | 61.8 | 133 | 118 | 107 |
| Cc1ccc(Nc2nccc(N(C)c3ccc4c(C)n(C)nc4c3)n2)cc1S(N)(=O)=O [Pazopanib] + CC(=O)O[C@@]12CO[C@@H]1C[C@H](O)[C@@]1(C)C(=O)[C@H](O)C3=C(C)[C@@H](OC(=O)[C@H](O)[C@@H](NC(=O)OC(C)(C)C)c4ccccc4)C[C@@](O)([C@@H](OC(=O)c4ccccc4)[C@H]21)C3(C)C [Docetaxel] (first compound 0.4 µM, partner dose 0.0001 µM) | 91.9 | 66.5 | 2550 | 2320 | 77.3 | 292 | 139 | 211 | 167 | 63 | 472 | 172 | 171 | 362 | 214 | 95.7 | 243 | 173 | 96.4 |
| N#CC[C@H](C1CCCC1)n1cc(-c2ncnc3[nH]ccc23)cn1 [ruxolitinib] + Clc1ccc(Nc2nnc(Cc3ccncc3)c3ccccc23)cc1 [vatalanib] (first compound 1 µM, partner dose 2 µM) | 104 | 90.5 | 71.8 | 220 | 80.1 | 145 | 126 | 307 | 141 | 51 | 71.7 | 44.6 | 76.9 | 61.4 | 89.2 | 32.9 | 38.3 | 77.7 | 86.6 |
| CCCCCCCCCCCCCCCCCCOP(=O)([O-])OC1CC[N+](C)(C)CC1 [Perifosine] + CCCS(=O)(=O)Nc1ccc(F)c(C(=O)c2c[nH]c3ncc(Cl)cc23)c1F [PLX4720] (first compound 0.4 µM, partner dose 0.08 µM) | 78.2 | 84 | 72.2 | 95.3 | 81.8 | 22.1 | 95 | 111 | 90.4 | 114 | 119 | 62.2 | 71.2 | 60.5 | 198 | 191 | 87.3 | 37.5 | 153 |
| Cc1ccc(Nc2nccc(N(C)c3ccc4c(C)n(C)nc4c3)n2)cc1S(N)(=O)=O [Pazopanib] + COc1ccc(C2=N[C@@H](c3ccc(Cl)cc3)[C@@H](c3ccc(Cl)cc3)N2C(=O)N2CCNC(=O)C2)c(OC(C)C)c1 [Nutlin-3] (first compound 0.4 µM, partner dose 0.1 µM) | 53.5 | 214 | 170 | 76.6 | 83 | 209 | 108 | 126 | 110 | 68.7 | 138 | 93.8 | 148 | 118 | 401 | 39.4 | 180 | 83.7 | 107 |
| Cc1cn(-c2cc(NC(=O)c3ccc(C)c(Nc4nccc(-c5cccnc5)n4)c3)cc(C(F)(F)F)c2)cn1 [nilotinib] + CC(=O)c1c(C)c2cnc(Nc3ccc(N4CCNCC4)cn3)nc2n(C2CCCC2)c1=O [palbociclib] (first compound 0.2 µM, partner dose 0.04 µM) | 94.5 | 124 | 85.8 | 207 | 172 | 65.7 | 125 | 132 | 111 | 128 | 58.6 | 177 | 327 | 116 | 65 | 33.9 | 118 | 55.3 | 74.5 |
| N#CC[C@H](C1CCCC1)n1cc(-c2ncnc3[nH]ccc23)cn1 [ruxolitinib] + CC1(C)CCC(c2ccc(Cl)cc2)=C(CN2CCN(c3ccc(C(=O)NS(=O)(=O)c4ccc(N[C@H](CCN5CCOCC5)CSc5ccccc5)c(S(=O)(=O)C(F)(F)F)c4)cc3)CC2)C1 [ABT263] (first compound 1 µM, partner dose 0.4 µM) | 130 | 391 | 257 | 479 | 96.6 | 567 | 327 | 426 | 368 | 389 | 189 | 34.6 | 142 | 209 | 151 | 87.8 | 365 | 359 | 279 |

A second format for some results above:
SMILES,cleaved PARP positive nuclei fraction [1] [%],cleaved PARP positive nuclei fraction [2] [%],cleaved PARP positive nuclei fraction [3] [%],cleaved PARP positive nuclei fraction [4] [%],cleaved PARP positive nuclei fraction [5] [%],cleaved PARP positive nuclei fraction [6] [%],cleaved PARP positive nuclei fraction [7] [%],cleaved PARP positive nuclei fraction [8] [%],cleaved PARP positive nuclei fraction [9] [%],cleaved PARP positive nuclei fraction [10] [%],cleaved PARP positive nuclei fraction [11] [%],cleaved PARP positive nuclei fraction [12] [%],cleaved PARP positive nuclei fraction [13] [%],cleaved PARP positive nuclei fraction [14] [%],cleaved PARP positive nuclei fraction [15] [%],cleaved PARP positive nuclei fraction [16] [%],cleaved PARP positive nuclei fraction [17] [%],cleaved PARP positive nuclei fraction [18] [%],cleaved PARP positive nuclei fraction [19] [%]
"O=C(Nc1cc(C(F)(F)F)cc(C(F)(F)F)c1)c1cc(Cl)ccc1O + CC(C)C[C@H](NC(=O)[C@H](Cc1ccccc1)NC(=O)c1cnccn1)B(O)O [Bortezomib] (first compound 0.016 µM, partner dose 0.001 µM)",122,108,158,105,88,407,114,107,256,234,199,52.7,144,185,125,128,254,81.6,41.5
"Cc1ccc(Nc2nccc(N(C)c3ccc4c(C)n(C)nc4c3)n2)cc1S(N)(=O)=O [Pazopanib] + C[C@]1(O)C[C@@H](c2nc(-c3ccc4ccc(-c5ccccc5)nc4c3)c3c(N)nccn32)C1 [OSI906] (first compound 0.4 µM, partner dose 0.4 µM)",170,105,181,191,123,90.6,119,133,96.4,69.9,71.4,108,155,86.9,68.4,207,26.3,95.5,83.9
"O=C(Nc1cc(C(F)(F)F)cc(C(F)(F)F)c1)c1cc(Cl)ccc1O + Cc1ccc(Nc2nccc(N(C)c3ccc4c(C)n(C)nc4c3)n2)cc1S(N)(=O)=O [Pazopanib] (first compound 0.016 µM, partner dose 0.4 µM)",120,37.6,69.1,182,72.1,124,99.2,86.5,100,32,46.5,94.4,84.1,99.4,47.9,61.8,133,118,107
